According to article PMC7261175, “A splice site-sensing conformational switch in U2AF2 is modulated by U2AF1 and its recurrent myelodysplasia-associated mutation” (Nucleic Acids Research, 2019):

Key:
MBP tag = test: fluorescence anisotropy; conditions: Anisotropy: 150 mM NaCl, 25 mM HEPES pH 6.8, 0.5 mM TCEP, 3% glycerol, 20 uM ZnCl2, 0.2 U/ul SUPERase-In; recombinant protein; label: 5'-fluorescein
[1] = system: U2AF1 S34F untagged + U2AF2; test: fluorescence anisotropy; conditions: Kd in figure only; Anisotropy: 150 mM NaCl, 25 mM HEPES pH 6.8, 0.5 mM TCEP, 3% glycerol, 20 uM ZnCl2, 0.2 U/ul SUPERase-In; recombinant protein; label: 5'-fluorescein

Sequence: CUGUCCCUUUUUUUUCACAGCUCGCGGUUGAG [Fl-AdML]
- binding result (MBP tag): no binding
- binding result [1]: binds

For at least one entry, the source does not settle the construct or the ends of the probe. For some assays here: A negative result means that nothing was seen under these conditions. For some assays here: At least one verdict was read from the data and is not stated in words by the source.
